The values that follow come from the supplement of paper PMC7125110.

± gives the standard error. Many of these values have a large error.

To fix the notation:
B1: glmS ribozyme (parent)
chain: AUAAAAGCGCCAGAACUACAGAAAUGUAGUUGACGAGGAGGAGGUUUAUCGAAUUUUCGGCGGAUGCCUCCAAA

In one series the parent is B1. The experiment in a line: kcat; higher = faster cleavage; RNA array. The conditions noted are these: with glucosamine-6-phosphate. The method, boiled down: (§1)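 Weighted Michaelis–Menten fits across concentrations supplied kcat and KM, based on kobs from one- or two-exponential decay fits to normalised per-tile medians. The data came from barcoded ribozyme variants transcribed in situ by E. coli RNA polymerase on sequenced MiSeq chips and tracked at 37 °C by a hybridised Cy3 probe. Glucosamine-6-phosphate (40 μM to 10 mM) in HEPES/KCl/Mg(OAc)2 buffer was flowed in.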
Take AUAAAUGCGCCAGAACUACAGAAAUGUAGUUGACGAGGAGGAUGUUUAUCGAAUUUUCGGCGGAUGCCUCCAAA [A6U G43U]: the kcat was less than 1e-05 s⁻¹.
For AUAAAAGCGCAAGAGCUACAGAAAUGUAGUUGACGAGGAGGAGGUUUAUCGAAUUUUCGGCGGAUGCCUCCAAA [C11A A15G], the kcat stood at 0.000255 ± 2.9e-05 s⁻¹.
With AUAAAAGCGCUCGAACUACAGAAAUGUAGUUGACGAGGAGGAGGUUUAUCGAAUUUUCGGCGGAUGCCUGCAAA [C11U A12C C70G], the kcat turned out to be 4.6e-05 ± 2.8e-05 s⁻¹.
As to AUAAAACCGCCAGAACUACAGAAAUGUAGUUGACAAGGAGGAGGUUUAUCGAAUUUUCGGCGGAUGCCUCCAAA [G7C G35A], the kcat is less than 1e-05 s⁻¹.
With AUAAAUGCGCCAGAAGUACAGAAAUGUAGUUGACGAGGAGGAGGUUUAUCGAAUUUUCGGCGGAUGCCUCCAAA [A6U C16G], the kcat was 5.15e-05 ± 3.5e-06 s⁻¹.
For the variant AUAAAAGCGACAGAACUACAGAAAUGUAGUUGACGAGGAGGAGGUUUAUCGAAUUUUCGGCGGAUGCCUCCAAA [C10A], the kcat is less than 1e-05 s⁻¹.
AUAAAAACGCCAGAACUACAGAAAUGUAGUUGACGAGAAGGAGGUUUAUCGAAUUUUCGGCGGAUGCCUCCAAA [G7A G38A]: the kcat was less than 1e-05 s⁻¹.
Consider AUAAAAGCGACAGAACUACAGAAAUGUAGUAGACGAGGAGGAGGUUUAUCGAAUUUUGGGCGGAUGACUCCAAA [C10A U31A C58G C67A], for which the kcat is 5.35e-05 ± 3.1e-05 s⁻¹.
Still for that read-out and setting: under AUAAAAGCGUCAGAACUACAGAAAUGUAGUUGACGAGGAGGAGGUUUAUCGAAUAUUCGGCGGAUGCCUUCAAA [C10U U55A C70U] stands 1.94e-05 ± 1.1e-05 s⁻¹; under AUAAAAGCGACAGAACUACAGAAAUGUAGUUGACGAGGAGGAGGUUUAUCGAAUUCUCGGCGGAUGCCUCCAAA [C10A U56C], less than 1e-05 s⁻¹.
On the same count and under the same terms, the value for AUAAAAGCGACAGUACUACAGAAAUGUAGUUGACGAGGAGGAGGUUUAUCGAAUUUUCUGCGGAUGCCUCGAAA [C10A A14U G59U C71G] was 1.42e-05 ± 3.8e-06 s⁻¹.
On to AUAAAUGCGCCAGGACUACAGAAAUGUAGUUGACGAGGAGGAGGUUUAUCGAAUUUUCGGCGGAUGCCUCCAAA [A6U A14G], for which the kcat came out at 0.000657 ± 7.8e-05 s⁻¹.
Still for that read-out and setting: the value for AUAAAUGCGCCAGCACUACAGAAAUGUAGUUGACGAGGAGGAGGUUUAUCGAAUUUUCGGCGGAUGCCUCCAAA [A6U A14C] was 0.000106 ± 7.1e-05 s⁻¹; that for AUAAAAACGCCAGAACUACAGAAAUGUAGUUGACGAGGAGGAGGUUUAUCGAAAUUUCGGCGGAUGCCUCCAAA [G7A U54A] was 9.7e-05 ± 5.3e-05 s⁻¹; that for AUAAAAGCGCAAGAACUACAGAAAUGUAGUUGACGAGGAGGAGGUUUAGCGAAUUUUCGGCGGAUGCCUCCAAA [C11A U49G] was less than 1e-05 s⁻¹.
On the same count and under the same terms, the value for AUAAAACCGCCAGAACUACAGAAAUGUAGUCGACGAGGAGGAGGUUUAUCGAAUUUUCGGCGGAUGCCUCCAAA [G7C U31C] was less than 1e-05 s⁻¹.
Consider AUAAAAGAGCCAGAACUACAGAAAUGUAGUUGACGAGGAGGAGGUUUAUCGAAUUUUCGACGGAUGCCUCCAAA [C8A G60A], for which the kcat was less than 1e-05 s⁻¹.
Still for that read-out and setting: under AUAAACGCGCCAGAACUACAGAAAUGUAGUUGACGAGGAGGAGGUUUAUCGAAUAUUCGGCGGAUGCCUCCAAA [A6C U55A] stands 9.15e-05 ± 2.5e-05 s⁻¹; under AUAAAAGCGCAAGAACUACAGAAAUGUAGUUGACGAGGAGGAGGUUUAUAGAAUUUUCGGCGGAUGCGUCCAAA [C11A C50A C68G], 5.64e-05 ± 2.8e-05 s⁻¹; under AUAAAAGCACGAGAACUACAGAAAUGUAGUUGACUAUGAGGAGGUUUAUCGAAUUUUCGGUGGAUGCCUCCAAA [G9A C11G G35U G37U C61U], less than 1e-05 s⁻¹.
The same measure, in the same setting: under AUAAAAGCGACAGAACUACAGAAAUGUAGUUGACGAGGAGGAGGUUUAUCGAAUUUUCGGCGGCUGGCUCCAAA [C10A A64C C67G] stands 5.91e-05 ± 3.1e-05 s⁻¹; under AUAAAACCGCCAGAACUACAGAAAUGUAGUUGACGAGUAGGAGGUUUAUCGAAUUUUCGGCGGAUGCCUGCAAA [G7C G38U C70G], 1.32e-05 ± 1e-05 s⁻¹.

The next series covers variants of B1. The experiment in a line: KM; higher = weaker cofactor use; RNA array. Particulars: with glucosamine-6-phosphate. In a few lines: as §1
For the variant AUAAAUGCGCCAGAACUACAGAAAUGUAGUUGACGAGGAGGAUGUUUAUCGAAUUUUCGGCGGAUGCCUCCAAA [A6U G43U], the KM was 6890 ± 1100 µM.
Turning to AUAAAAGCGCAAGAGCUACAGAAAUGUAGUUGACGAGGAGGAGGUUUAUCGAAUUUUCGGCGGAUGCCUCCAAA [C11A A15G], the KM stood at 1280 ± 310 µM.
As for AUAAAUGCGCCAGAAGUACAGAAAUGUAGUUGACGAGGAGGAGGUUUAUCGAAUUUUCGGCGGAUGCCUCCAAA [A6U C16G], the KM was determined as 3290 ± 720 µM.
As to AUAAAAGCGACAGAACUACAGAAAUGUAGUUGACGAGGAGGAGGUUUAUCGAAUUUUCGGCGGAUGCCUCCAAA [C10A], the KM amounted to 559 ± 95 µM.
The same measure, in the same setting: under AUAAAUGCGCCAGGACUACAGAAAUGUAGUUGACGAGGAGGAGGUUUAUCGAAUUUUCGGCGGAUGCCUCCAAA [A6U A14G] stands 2280 ± 480 µM; under AUAAAAACGCCAGAACUACAGAAAUGUAGUUGACGAGGAGGAGGUUUAUCGAAAUUUCGGCGGAUGCCUCCAAA [G7A U54A], 23900 ± 18000 µM; under AUAAAAGAGCCAGAACUACAGAAAUGUAGUUGACGAGGAGGAGGUUUAUCGAAUUUUCGACGGAUGCCUCCAAA [C8A G60A], 86.3 ± 25 µM.
With AUAAACGCGCCAGAACUACAGAAAUGUAGUUGACGAGGAGGAGGUUUAUCGAAUAUUCGGCGGAUGCCUCCAAA [A6C U55A], the KM stood at 1960 ± 1800 µM.

The variants in another series derive from B1. The experiment in a line: self-cleavage kobs at 2500 uM GlcN6P; higher = faster cleavage; RNA array. The conditions noted are these: with glucosamine-6-phosphate. The method, boiled down: as §1
Take AUAAAAGCGCUCGAACUACAGAAAUGUAGUUGACGAGGAGGAGGUUUAUCGAAUUUUCGGCGGAUGCCUGCAAA [C11U A12C C70G]: the “self-cleavage kobs at 2500 uM GlcN6P” value was 8.9e-05 ± 5.3e-05 s⁻¹.
On the same count and under the same terms, under AUAAAAGCGACAGAACUACAGAAAUGUAGUUGACGAGGAGGAGGUUUAUCGAAUUUUCGGCGGAUGCCUCCAAA [C10A] stands less than 1e-05 s⁻¹.
On the same count and under the same terms, under AUAAAAGCGUCAGAACUACAGAAAUGUAGUUGACGAGGAGGAGGUUUAUCGAAUAUUCGGCGGAUGCCUUCAAA [C10U U55A C70U] stands 2.39e-05 ± 2.2e-05 s⁻¹; under AUAAAUGCGCCAGCACUACAGAAAUGUAGUUGACGAGGAGGAGGUUUAUCGAAUUUUCGGCGGAUGCCUCCAAA [A6U A14C], 1.35e-05 ± 9.7e-06 s⁻¹.

Variants of B1 are the subject of a further series. Nature of the series: self-cleavage kobs at 10000 uM GlcN6P; higher = faster cleavage; RNA array. Particulars: with glucosamine-6-phosphate. In a few lines: as §1
For the variant AUAAAAGCGCUCGAACUACAGAAAUGUAGUUGACGAGGAGGAGGUUUAUCGAAUUUUCGGCGGAUGCCUGCAAA [C11U A12C C70G], the “self-cleavage kobs at 10000 uM GlcN6P” value came to 3.06e-05 ± 2e-05 s⁻¹.
On the same count and under the same terms, the value for AUAAAAACGCCAGAACUACAGAAAUGUAGUUGACGAGGAGGAGGUUUAUCGAAAUUUCGGCGGAUGCCUCCAAA [G7A U54A] was 2.87e-05 ± 1.9e-05 s⁻¹.

Variants of B1 are the subject of the next series. The experiment in a line: self-cleavage kobs at 640 uM GlcN6P; higher = faster cleavage; RNA array. The conditions noted are these: with glucosamine-6-phosphate. In a few lines:
as §1
In the case of AUAAAAGCGACAGAACUACAGAAAUGUAGUUGACGAGGAGGAGGUUUAUCGAAUUUUCGGCGGCUGGCUCCAAA [C10A A64C C67G], the “self-cleavage kobs at 640 uM GlcN6P” value is 6.02e-05 ± 3.8e-05 s⁻¹.

By kcat is commonly meant the maximal rate divided by the concentration of active sites. As a reminder, the KM is the concentration of substrate that gives half-maximal velocity.
